According to patent US5053216A, “Radioactive Jomol, its derivatives, processes for the production of these compounds, their use and product” (priority 1985, dated 1991):
At least one read-out could not be matched to a standard name with certainty.

SMILES: O=Cc1ccc2c(c1)OCC(=O)N1CCOCCOCCN(CCOCCOCC1)C(=O)CO2 [CE]
- stability constant regarding the radium bond, 1g K: 6.64
